Laboratory results as given in PubChem BioAssay AID493014 (National Center for Advancing Translational Sciences (NCATS), 2011).
The list shows a part of the results. Further columns of the screen follow, without active or inactive calls. Most of these compounds were active or inconclusive in the main read-out, so they are no random draw. Words in brackets tell the shape of the fitted curve; partial curves, single points and poor fits give uncertain potencies.

Experiment: qHTS Assay to Find Inhibitors of Chronic Active B-Cell Receptor Signaling
Conditions: ABC-DLBCL IkBa-CBG/CBR reporter, luminescence ratio (green luciferase fused to IkBa over red control in TMD8 lymphoma cells), 4 h
Outline: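 Doxycycline induced both beetle luciferases in TMD8 lymphoma cells; IKK-driven degradation limits the IkappaBalpha-fused green signal, while red luminescence normalises for cell number and nonspecific effects. Compounds tested up to 46 uM, 4 hrs.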

[1] = measured here: CBR red luminescence, cell number
[2] = measured here: IkBa-CBG green luminescence

Row | SMILES | AC50 [1] | AC50 [2]
1 | Cc1sc2ncnc(N3CCC(C(=O)NNC(=O)c4ccccc4Cl)CC3)c2c1C | 11.2 µM [falling, partial curve] | 
2 | COc1ccc(NC(=O)c2ccc(COc3ccccc3Br)o2)cc1OC | 15.8 µM [falling, partial curve, poor fit] | 
3 | CN1CCC(CN)(N2CCN(c3ccccc3)CC2)CC1 | 0.0891 µM [rising, full curve, poor fit] | 
4 | Cc1cc2cc(CNC(=O)C3CCCC3)ccc2n1C | 3.98 µM [rising, partial curve] | 
5 | Cc1ccc(C(=O)NNC(=S)NC(=O)c2ccc(Cl)cc2Cl)cc1 | 13 µM [falling, partial curve, poor fit] | 
6 | CCOC(=O)c1c(NC(=O)COC(=O)Cc2n[nH]c(=O)c3ccccc23)sc(C(=O)N(C)C)c1C | 1.03 µM [rising, full curve, poor fit] | 
7 | NNC(=O)c1cc2c(N3CCC(Cc4ccccc4)CC3)ncnc2s1 | 35.5 µM [falling, single point] | 
8 | CCOC(=O)Cc1nnc(Nc2cc(C)ccc2C)c2ccccc12 | 7.94 µM [falling, partial curve, poor fit] | 
9 | Cc1ccccc1OCC(=O)O/N=C(\N)Cc1cccs1 | 0.631 µM [rising, full curve, poor fit] | 
10 | O=C(Cc1ccc(Cl)c(Cl)c1)Nc1ccccc1N1CCOCC1 | 35.5 µM [falling, single point] | 
11 | CCN(CC)CC(=O)Nc1ccc(/C(C)=N/NC2=NCCN2)cc1 | 11.2 µM [falling, partial curve, poor fit] | 
12 | Cc1ccc(C(C)C)c(OCCCCN2CCNCC2)c1 | 35.5 µM [falling, single point] | 
13 | Cc1sc2nc(C3CC3)nc(N3CCN(C(=O)c4ccc(Cl)cc4)CC3)c2c1C | 12.6 µM [falling, partial curve] | 
14 | O=C1Nc2ccccc2C1C(C[N+](=O)[O-])c1ccccn1 (stereo not drawn) | 14.1 µM [falling, partial curve, poor fit] | 
15 | COc1cc(NC(=O)NNC(=O)c2cc3occc3n2C)cc(OC)c1OC | 20 µM [falling, partial curve, poor fit] | 
16 | NC(=S)Nc1nc2ccccc2s1 |  | 0.631 µM [falling, full curve, poor fit]
17 | COc1ccc(-c2noc(CCC(=O)N3CCN(c4cccc(C)c4C)CC3)n2)cc1 | 20.6 µM [rising, partial curve] | 
18 | O=c1cc(-c2ccccc2)[nH]c2ccc(F)cc12 |  | 10.3 µM [falling, partial curve]
19 | CCOC(=O)C1CCN(C(=O)CN(Cc2ccc(Cl)cc2)S(C)(=O)=O)CC1 | 2.91 µM [falling, partial curve, poor fit] | 
20 | N#C/C(=C\c1ccc(N2CCOCC2)o1)C(=O)NC1CCCCC1 | 22.4 µM [falling, single point] | 
21 | COc1cc(-c2cc(C(=O)Nc3ccc(O)cc3)c3ccccc3n2)cc(OC)c1OC | 35.5 µM [falling, single point] | 

Two records drawn at random from those above, as already listed:
Row | SMILES | AC50 [1] | AC50 [2]
13 | Cc1sc2nc(C3CC3)nc(N3CCN(C(=O)c4ccc(Cl)cc4)CC3)c2c1C | 12.6 µM [falling, partial curve] | 
8 | CCOC(=O)Cc1nnc(Nc2cc(C)ccc2C)c2ccccc12 | 7.94 µM [falling, partial curve, poor fit] | 

(list continues)

Row | SMILES | AC50 [1] | AC50 [2]
22 | CCCCNc1c(-c2cccc(Sc3ccc(OC)cc3)c2)nc2ccccn12 | 23.1 µM [falling, single point] | 
23 | Cc1ccn2cc(-c3ccc(NC(=O)c4ccco4)cc3)nc2c1 | 1.84 µM [rising, partial curve, poor fit] | 
24 | COc1ccc(-c2c(C)n([O-])c(C)c(C)[n+]2=O)cc1 | 18.4 µM [rising, partial curve] | 
25 | O=C(Nc1cnc2ccccc2c1)c1cccc(-n2cnnn2)c1 | 7.08 µM [falling, partial curve] | 
26 | COc1ccc(OC)c(NC(=O)C2CCN(c3cc(-c4ccccc4)nc4ncnn34)CC2)c1 | 3.26 µM [rising, single point] | 
27 | O=C(CSc1cccc[n+]1[O-])NN(c1ccccc1)c1ccccc1 | 7.08 µM [rising, full curve, poor fit] | 
28 | COc1ccc(C(=O)/C=C/c2ccc(O)cc2)c2c1CC(O)C(C)(C)O2 (stereo not drawn) |  | 23.1 µM [falling, partial curve, poor fit]
29 | Cc1ccc(O)c(C2=NCCNC(C(F)(F)C(F)F)=C2)c1 | 0.231 µM [falling, full curve, poor fit] | 
30 | Cc1cc(Cl)cc(Cl)c1OCC(=O)NCc1ccco1 | 8.91 µM [falling, partial curve, poor fit] | 
31 | Cc1ccc(OCC(=O)Nc2cccnc2Cl)cc1C | 35.5 µM [falling, single point] | 
32 | COc1ccc2nc(N3CCC(O)CC3)c(C#N)cc2c1 | 14.1 µM [rising, partial curve] | 
33 | CCOc1ccc(N=C(/C(C(=O)C(=O)N2CCOCC2)=C(\O)c2ccccc2)c2ccccc2)cc1 | 14.6 µM [falling, partial curve, poor fit] | 
34 | CC(C)(CNC(=O)c1ccc(-c2ccccc2Cl)o1)N1CCOCC1 | 4.61 µM [rising, partial curve, poor fit] | 
35 | Cc1ccc(C(=O)NCC(=O)OCC(=O)c2c(N)n(C)c(=O)n(C)c2=O)s1 | 17.8 µM [rising, single point] | 
36 | O=Nc1c2nc3ccccc3n(O)c-2c2ccccc12 | 1.12 µM [falling, partial curve, poor fit] | 
37 | CCOCCCNc1nc(-c2ccccc2)nc2ccccc12 | 3.16 µM [falling, partial curve, poor fit] | 
38 | Clc1ccc(-n2cnnn2)cc1 | 20.6 µM [falling, partial curve, poor fit] | 
39 | NC(=O)N/N=C(/CCCCCC/C(=N\NC(N)=O)c1ccccc1)c1ccccc1 | 10 µM [falling, partial curve, poor fit] | 
40 | O=C(CCC1CCCN(Cc2cccc(Cl)c2)C1)NCc1ccccc1F (stereo not drawn) | 3.55 µM [rising, partial curve, poor fit] | 
41 | Cn1nccc1C(=O)NC(=S)Nc1cc(Cl)cc(Cl)c1 | 3.16 µM [rising, partial curve, poor fit] | 
42 | CCCn1c(=C(C#N)C#N)s/c(=C2\C=Cc3ccccc3N2CC)c1=O | 35.5 µM [falling, single point] | 

Row | SMILES | AC50 [1] | AC50 [2]
43 | Cc1ccc(-c2cc(C(=O)Nc3nccs3)c3ccccc3n2)o1 | 10.3 µM [falling, partial curve, poor fit] | 
44 | COc1ccc(F)cc1S(=O)(=O)NCC(c1ccco1)S(=O)(=O)c1ccc(F)cc1 (stereo not drawn) | 1.78 µM [falling, partial curve, poor fit] | 
45 | COc1ccc2c(c1)c(=O)cc(C)n2CC(=O)NCc1ccco1 | 32.6 µM [falling, single point] | 
46 | Cc1cccc(COCC(Cc2ccccc2)N2CCN(C(=O)c3ccc(C(F)(F)F)cc3)CCC2=O)c1 (stereo not drawn) | 18.4 µM [falling, single point] | 
47 | Cc1ccc(C(=O)Cc2nnc(C)s2)cc1 | 18.4 µM [falling, single point] | 
48 | Fc1cc(F)c(C2SCCN2C(=S)Nc2cccc(C(F)(F)F)c2)c(F)c1 (stereo not drawn) | 0.178 µM [falling, full curve, poor fit] | 
49 | Cc1ccsc1C(=O)N/N=C/C=C/c1ccccc1[N+](=O)[O-] | 10.3 µM [falling, partial curve] | 
50 | COc1ccc(C(=O)CN2CCN(S(=O)(=O)c3ccc(C(C)C)cc3)CC2)cc1 | 11.2 µM [falling, partial curve, poor fit] | 
51 | COC(=O)c1ccc2c(=O)n(Cc3ccc(C(=O)NCCCN4CCC(C)CC4)cc3)c(=S)[nH]c2c1 | 8.91 µM [falling, partial curve] | 
52 | CC(=O)N(Cc1cc(=O)[nH]c2ccccc12)c1ccc(C)cc1C | 3.55 µM [rising, partial curve] | 
53 | CCn1c(NCCc2ccc(OC)c(OC)c2)nc2c1c(=O)n(C)c(=O)n2C | 2.31 µM [falling, partial curve, poor fit] | 
54 | CC(C)(C)[C@H]1COC(=O)[C@H](NC(=O)OCC2c3ccccc3-c3ccccc32)C/C=C\C[C@@H](CC(=O)N(CCO)Cc2ccccc2)C(=O)N1 | 16.4 µM [falling, partial curve] | 
55 | COc1cc(/C=C(/C#N)C(=O)Nc2ccc(C)cc2)ccc1Oc1nc(Cl)ncc1F | 1.46 µM [falling, full curve, poor fit] | 
56 | CC(C)[C@@H]1CC[C@@H](C)c2c(-c3ccccc3)n[nH]c21 | 35.5 µM [rising, single point] | 
57 | COc1ccccc1C(=O)Nc1ccc(S(=O)(=O)N2CCCC2)cc1 | 14.6 µM [rising, single point] | 
58 | Cc1cccc(Cn2c(=O)n(-c3ccc(CC(=O)NCc4ccco4)cc3)c(=O)c3sccc32)c1 |  | 1.12 µM [falling, partial curve, poor fit]
59 | O=C(COc1ncnc2sccc12)N1CCN(C(=O)c2ccco2)CC1 | 0.0891 µM [rising, full curve, poor fit] | 
60 | CCOc1cc(N2CCOCC2)c(OCC)cc1NC(=O)CN1C(=O)NC2(CCCCC2)C1=O | 13 µM [rising, partial curve, poor fit] | 16.4 µM [falling, single point]
61 | Cc1cc(N)n(-c2cc(C)c3ccccc3n2)n1 | 10 µM [falling, partial curve, poor fit] | 
62 | Cn1c2ccccc2c2c(C(=O)N3CCN(c4ccccc4)CC3)cn(C3CCCC3)c(=O)c21 | 10.3 µM [falling, partial curve, poor fit] | 
